# Source: PubChem BioAssay AID2685 (National Center for Advancing Translational Sciences (NCATS), 2010)
# The other results are listed elsewhere or left out. These are further read-outs of the screen, such as a control signal, another cell line or another target. No call is given for them. The list favours compounds with an active or inconclusive main result. The note in brackets gives the kind of curve behind each potency; many fits are weak.
# Assay: qHTS Assay for Lipid Storage Modulators in Drosophila S3 Cells;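 for cell number change: cells counted by Cell Tracker Red CMTPX staining in the red channel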
# Details: BODIPY lipid droplet fluorescence, 18-24 h; for cell number change: measured here: cell count max response, cells fed with added oleic acid
# Method in brief: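 Laser-scanning cytometry quantifies lipid droplet accumulation (500–530 nm total intensity; droplet/cell object ratio) in oleic acid-fed (400 uM added) Drosophila S3 cells treated with a concentration series. 20 uM Triacsin C defined 100% inhibition.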
# [1] = measured here: lipid fluorescence (Fed channel) AC50, cells fed with added oleic acid
# [2] = measured here: cell number channel AC50, cells fed with added oleic acid
Structure (SMILES),cell number change [%],AC50 [1],AC50 [2]
O=C(OCc1ccc([N+](=O)[O-])cc1)C1CCN(S(=O)(=O)c2ccccc2)CC1,9.39,"3.26 µM [rising, single point]",
O=C(COC(=O)Cn1cnc2ccccc21)NCCc1ccccc1,-8.01,"0.184 µM [falling, full curve, poor fit]",
Cc1ccc(N2CC(C(=O)Nc3ccc(S(=O)(=O)N4CCCC4)cc3)CC2=O)cc1 (stereo not drawn),-9.64,"5.8 µM [falling, full curve, poor fit]",
CCOc1ccc2[nH]cc(C(=O)NCc3ccc(F)cc3)c(=O)c2c1,3.16,,
COCC(=O)N1CCCc2ccccc21,17.3,"16.4 µM [rising, single point]",
CC1CC(C)CN(CCCNC(=O)c2c(O)nc3ccccn3c2=O)C1 (stereo not drawn),-10,,
CCC(CC)c1nn2c(N)c(/C=C3\C=Nc4ccccc43)c(=O)nc2s1,-29.3,"0.00651 µM [falling, full curve, poor fit]",
CC(=O)OCCCNc1cc(Sc2ccc(Cl)cc2)c2nonc2c1[N+](=O)[O-],-24.5,"4.61 µM [falling, full curve]","4.61 µM [falling, full curve, poor fit]"
O=C1OC(Nc2ccc3c(c2)OCO3)c2ccccc21 (stereo not drawn),9.68,"6.51 µM [rising, single point]",
COC(=O)c1ccccc1COn1c(=O)c(C)[n+]([O-])c2ccccc21,-5.22,,
COC(=O)c1cc(C(=O)NCCN2C(=O)S/C(=C\c3cccs3)C2=O)cc([N+](=O)[O-])c1,,"9.2 µM [rising, partial curve, poor fit]",
O=C(CCNC(=O)N1CC(=O)Nc2ccccc21)NCc1ccc(F)cc1,-12.5,,"0.82 µM [rising, single point]"
Cc1ccc(Nc2nnc(SCC(=O)c3ccc(O)cc3O)s2)cc1,-14.5,"1.41 µM [rising, partial curve]",
O=C1/C(=C/Nc2cccc([N+](=O)[O-])c2)CCc2ccccc21,25.9,,
Cc1ccc(CN2CCC(n3nccc3NC(=O)c3ccc4c(c3)OCO4)CC2)o1,-4.95,"29.1 µM [rising, single point]","2.59 µM [rising, single point]"
O=C(O)c1ccc(COc2cccc(CO)c2)cc1,-2.97,,
CCCNc1nc2c(c(=O)n(C)c(=O)n2C)n1Cc1cccc(C)c1,-42.6,"20.6 µM [falling, partial curve]","4.11 µM [falling, partial curve]"
CC1(C)CC(=O)C2=C(C1)N=C1c3ccccc3C(=O)C1C2c1ccc(Cl)cc1 (stereo not drawn),-6.18,"0.092 µM [rising, full curve]","2.06 µM [rising, partial curve]"
Cc1c(C(C)(C)O)[nH]c2cc(C(F)(F)F)ccc12,14.6,"29.1 µM [rising, single point]",

# In a second layout: results already given.
Structure (SMILES) | cell number change [%] | AC50 [1] | AC50 [2]
Cc1ccc(N2CC(C(=O)Nc3ccc(S(=O)(=O)N4CCCC4)cc3)CC2=O)cc1 (stereo not drawn) | -9.64 | 5.8 µM [falling, full curve, poor fit] | 
CCOc1ccc2[nH]cc(C(=O)NCc3ccc(F)cc3)c(=O)c2c1 | 3.16 |  | 
CC1(C)CC(=O)C2=C(C1)N=C1c3ccccc3C(=O)C1C2c1ccc(Cl)cc1 (stereo not drawn) | -6.18 | 0.092 µM [rising, full curve] | 2.06 µM [rising, partial curve]

# The list goes on:

Structure (SMILES),cell number change [%],AC50 [1],AC50 [2]
COC(=O)CSc1nnc(CNC(=O)c2ccc(S(=O)(=O)N3CCCCC3)cc2)n1C,1.77,"32.6 µM [falling, single point]",
CCN(C(=O)Cc1c(C(=O)O)[nH]c2ccccc12)c1ccc(OC)cc1,-44.4,"6.51 µM [falling, single point]","7.31 µM [falling, partial curve]"
O=C1c2ccccc2C(=O)N1c1ccc(S(=O)(=O)N2CCCCC2)cc1,-8.42,"20.6 µM [falling, single point]",
CCCCCn1c(=NC(=O)c2ccco2)c(C(=O)OCC)cc2c(=O)n3ccccc3nc21,4.79,"0.326 µM [rising, partial curve, poor fit]",
Cc1ccc(Cl)cc1NC(=O)NCc1cccnc1,-27.2,"29.1 µM [rising, single point]",
CCN(C(=O)CN1CCCCC1C)c1c(N)n(Cc2ccccc2)c(=O)[nH]c1=O (stereo not drawn),,"0.259 µM [rising, partial curve, poor fit]",
CS(=O)(=O)N1CCN(C(=O)NC2CCCCC2)CC1,-1.39,,
CN(C(=O)COC(=O)c1ccc2[nH]c3c(c2c1)CCCC3)C1CCS(=O)(=O)C1 (stereo not drawn),61.7,,"0.082 µM [rising, full curve, poor fit]"
Cc1ccc(-n2nnnc2Sc2ccc(S(=O)(=O)NCCN(C)C)cc2[N+](=O)[O-])cc1,33.3,"20.6 µM [falling, single point]","1.64 µM [rising, partial curve]"
Cc1nc2ccc(-c3nc4ccccc4[nH]3)cc2[nH]1,-43.9,"0.0517 µM [falling, full curve, poor fit]",
COc1ccc([C@@H]2[C@@H]3C(=O)N(C(C)(C)C)C(=O)[C@@H]3[C@]3(Cc4ccc(Cl)cc4)C(=O)N(c4cccc(F)c4)C(=O)N23)cc1,-5.68,"0.058 µM [rising, full curve, poor fit]",
CCc1ncc(CN2CCC(C(=O)Nc3cccc(-c4cscn4)c3)CC2)cn1,-19.3,"29.1 µM [falling, single point]",
Clc1ccccc1-c1nnc(-c2ccc3c(c2)OCO3)o1,16.9,"0.13 µM [rising, full curve, poor fit]",
CCCCNC(=O)/C(C#N)=C/c1ccc(F)cc1F,-0.136,"0.116 µM [falling, full curve]","0.116 µM [falling, full curve, poor fit]"
COc1cc(C(=O)O)ccc1Cl,-11.8,"0.00461 µM [falling, full curve, poor fit]",
COc1ccnc(Oc2ccc(F)cc2)c1C(=O)N/C=N/OCc1ccccc1,26.2,,
CCCC(C(=O)NC(C)(C)CC)N(Cc1ccco1)C(=O)CNS(=O)(=O)c1ccccc1 (stereo not drawn),-17.9,,
Cc1ccc(Oc2cc(NC(=O)CCCn3nc([N+](=O)[O-])cc3C)cc([N+](=O)[O-])c2)cc1,-2.44,"20.6 µM [falling, partial curve, poor fit]",
CCOC(=O)c1cnc2ccc(F)cc2c1Nc1ccc2c(c1)OCCO2,-9.77,"0.146 µM [rising, partial curve]",
